The supplement of paper PMC11542785
Where a name gives a salt, the structure may show the parent alone. The list shows a part of the results. Single values are uncertain, as repeats are few or missing.

Test system: Drosophila melanogaster DPAGT1 (Alg7) RNAi eye model
Test: eye size Z-score vs DMSO-treated DPAGT1 model flies; higher = larger eye (suppression of DPAGT1 phenotype)
Conditions: 5 uM

| Compound | eye size Z-score | eye size Z-score (female) |
| --- | --- | --- |
| C#C[C@]1(O)CC[C@H]2[C@@H]3CCC4=Cc5oncc5C[C@]4(C)[C@H]3CC[C@@]21C [Danazol] | -0.65 |  |
| O=C(Nc1ccc([N+](=O)[O-])cc1Cl)c1cc(Cl)ccc1O [Niclosamide] | 0.91 |  |
| CCOc1ccc(Cc2nccc3cc(OCC)c(OCC)cc23)cc1OCC [Ethaverine hydrochloride] | -0.44 |  |
| CCC[C@@H]1C[C@@H](C(=O)N[C@@H]([C@H]2O[C@H](SC)[C@H](O)[C@@H](O)[C@H]2O)[C@@H](C)O)N(C)C1 [Lincomycin hydrochloride] | -0.45 |  |
| CN1CCCN=C1/C=C/c1cccs1 [Pyrantel tartrate] | -0.37 |  |
| CCN(CC)CCN[C@@H](C(=O)OCCC(C)C)c1ccccc1 [Camylofine chlorhydrate] | 0.56 |  |
| NNC(=O)c1ccncc1 [Isoniazid] | 0.1 |  |
| CC1(C)O[C@@H]2C[C@H]3[C@@H]4C[C@H](F)C5=CC(=O)CC[C@]5(C)[C@H]4[C@@H](O)C[C@]3(C)[C@]2(C(=O)CO)O1 [Flurandrenolide] | 0.82 |  |
| O=C(O)c1cccnc1 [Niacin] | 0.89 |  |
| CCCCc1oc2ccccc2c1C(=O)c1cc(I)c(OCCN(CC)CC)c(I)c1 [Amiodarone hydrochloride] | -1.15 |  |
| O=c1[nH]c(=O)n([C@H]2C[C@H](O)[C@@H](CO)O2)cc1I [Idoxuridine] |  | 1.41 |
| CCN1CCCC1CNC(=O)c1cc(S(N)(=O)=O)ccc1OC (stereo not drawn) [Sulpiride] | 1.8 |  |
| COc1ccc(-c2ccc3cc(C(=O)O)ccc3c2)cc1C12CC3CC(CC(C3)C1)C2 [Adapalene] | 0.83 |  |
| Cc1ccc2c([nH]c(=O)c3c(=O)cc(C(=O)OCCC(C)C)oc32)c1C [Repirinast] | -0.4 |  |
| NCCc1ccc(O)c(O)c1 [Dopamine hydrochloride] | -0.18 |  |
| C[C@H](CS)C(=O)N1CCC[C@H]1C(=O)O [Captopril] | -0.49 |  |
| CN(Cc1cc(Br)cc(Br)c1N)C1CCCCC1 [Bromhexine hydrochloride] | -0.05 |  |
| CC1(C)O[C@@H]2C[C@H]3[C@@H]4C[C@H](F)C5=CC(=O)C=C[C@]5(C)[C@H]4[C@@H](O)C[C@]3(C)[C@]2(C(=O)CO)O1 [Flunisolide] | -0.05 |  |
| COc1ccc(CNc2nc(N3CCC[C@H]3CO)ncc2C(=O)NCc2ncccn2)cc1Cl [Avanafil] | 2.1 |  |
| CC[C@H](c1ccc(O)cc1)[C@@H](CC)c1ccc(O)cc1 [Hexestrol] | -0.36 |  |
| Cc1c(Nc2ncccc2C(=O)O)cccc1C(F)(F)F [Flunixin meglumine] | -0.1 |  |
| CC(C)(C)NC(=O)[C@H]1CC[C@H]2[C@@H]3CC[C@H]4NC(=O)C=C[C@]4(C)[C@H]3CC[C@]12C [Finasteride] | 1.27 |  |
| Nc1nc(N)c2nc(-c3ccccc3)c(N)nc2n1 [Triamterene] | 1.01 |  |
| CCCCOc1ccc(C(=O)CCN2CCCCC2)cc1 [Dyclonine hydrochloride] | -0.22 |  |
| Cn1nnc2c(C(N)=O)ncn2c1=O [Temozolomide] | -0.67 |  |
| CC(C)(C)CC(C)(C)c1ccc(OCCOCC[N+](C)(C)Cc2ccccc2)cc1 [Benzethonium chloride] | -0.21 |  |

| Compound | eye size Z-score | eye size Z-score (female) |
| --- | --- | --- |
| CC(C)NCC(O)COc1cccc2[nH]ccc12 (stereo not drawn) [Pindolol] | -0.21 |  |
| OC(CCN1CCCC1)(c1ccccc1)C1CCCCC1 (stereo not drawn) [Procyclidine hydrochloride] | -0.51 |  |
| CC(CN(C)C)CN1c2ccccc2CCc2ccccc21 (stereo not drawn) [Trimipramine maleate salt] |  | -0.04 |
| CC(C)C(=O)c1c(C(C)C)nn2ccccc12 [Ibudilast] | -0.33 |  |
| C[N+](C)(C)C[C@H](O)CC(=O)[O-] [Levocarnitine] | 0.4 |  |
| Nc1ccc(C(=O)O)c(O)c1 [Aminosalicylic acid] | -0.28 |  |
| O=C1Nc2ccc(Cl)cc2[C@@](C#CC2CC2)(C(F)(F)F)O1 [Efavirenz] | -0.64 |  |
| O=C(O)c1ccccc1Nc1cccc(C(F)(F)F)c1 [Flufenamic acid] | -2.33 |  |
| CC[N+](C)(CC)CCC[n+]1c(-c2ccccc2)c2cc(N)ccc2c2ccc(N)cc21 [Propidium iodide] | -0.19 |  |
| Clc1ccc(C(c2ccccc2Cl)C(Cl)Cl)cc1 (stereo not drawn) [Mitotane] | 1.07 |  |
| O=C1O[C@H]([C@@H](O)CO)C(O)=C1O [Ascorbic acid] | -0.27 |  |
| Cc1cccc(C)c1OCC(=O)N[C@@H](Cc1ccccc1)[C@@H](O)C[C@H](Cc1ccccc1)NC(=O)[C@H](C(C)C)N1CCCNC1=O [Lopinavir] | -0.19 |  |
| Nc1ccc(/N=N/c2ccccc2)c(N)n1 [Phenazopyridine hydrochloride] | 0.09 |  |
| CN(C)CCOC(=O)C(c1ccccc1)C1(O)CCCC1 (stereo not drawn) [Cyclopentolate hydrochloride] | 0.85 |  |
| CCC(=O)O[C@]1(C(=O)SCF)[C@H](C)C[C@H]2[C@@H]3C[C@H](F)C4=CC(=O)C=C[C@]4(C)[C@@]3(F)[C@@H](O)C[C@@]21C [Fluticasone propionate] | 0.77 |  |
| OCCN1CCN(CC/C=C2/c3ccccc3Sc3ccc(Cl)cc32)CC1 [Zuclopenthixol dihydrochloride] | 0.02 |  |
| Nc1nc(/C(=C/CC(=O)O)C(=O)N[C@@H]2C(=O)N3C(C(=O)O)=CCS[C@H]23)cs1 [Ceftibuten] | -0.96 |  |
| CCc1nn(CCCN2CCN(c3cccc(Cl)c3)CC2)c(=O)n1CCOc1ccccc1 [Nefazodone hydrochloride] | 1.27 |  |
| O=S(=O)(c1cccc2cnccc12)N1CCCNCC1 [Fasudil Hydrochloride] | -0.18 |  |
| CCCNC(C)(C)COC(=O)c1ccccc1 [Meprylcaine hydrochloride] | 0.3 |  |
| C[N+](C)(CCOc1ccccc1)Cc1ccccc1.O=C([O-])c1cc2ccccc2cc1O [Bephenium hydroxynaphthoate] | 0.63 |  |
| CC(NCCc1ccc(O)cc1)C(O)c1ccc(O)cc1 (stereo not drawn) [Ritodrine hydrochloride] | 0.7 |  |
| NC1CCN(c2c(F)cc3c(=O)c(C(=O)O)cn(C4CC4)c3c2Cl)C1 (stereo not drawn) [Clinafloxacin] | 0.02 |  |
| CCC1(C)CC(=O)NC1=O (stereo not drawn) [Ethosuximide] | -0.25 |  |
| O=[N+]([O-])c1ccc(O)c2ncccc12 [Nitroxoline] | 0.83 |  |
| CCCc1nn(C)c2c(=O)[nH]c(-c3cc(S(=O)(=O)N4CCN(C)CC4)ccc3OCC)nc12 [Sildenafil] | -0.36 |  |

| Compound | eye size Z-score | eye size Z-score (female) |
| --- | --- | --- |
| CCC(C)(C)C(=O)O[C@H]1C[C@@H](C)C=C2C=C[C@H](C)[C@H](CC[C@@H]3C[C@@H](O)CC(=O)O3)[C@H]21 [Simvastatin] | 0.14 |  |
| CCOC(=O)CC(=O)N1CCSC1COc1ccccc1OC (stereo not drawn) [Moguisteine] | 1.83 |  |
| CC(=O)Oc1ccc(C(c2ccc(OC(C)=O)cc2)c2ccccn2)cc1 [Bisacodyl] | -0.84 |  |
| O=C(O)CCC(=O)c1ccc(-c2ccccc2)cc1 [Fenbufen] | 0.42 |  |
| CN1CCN2c3ccccc3Cc3ccccc3C2C1 (stereo not drawn) [Mianserine hydrochloride] | -0.32 |  |
| N[C@@H](Cc1ccc(O)c(O)c1)C(=O)O [Levodopa] | 1.21 |  |
| CCCCc1ncc(/C=C(\Cc2cccs2)C(=O)O)n1Cc1ccc(C(=O)O)cc1 [Eprosartan mesylate] | 1.44 |  |
| O=C(NC(Cc1cc(=O)[nH]c2ccccc12)C(=O)O)c1ccc(Cl)cc1 (stereo not drawn) [Rebamipide] | 0.09 |  |
| C[N+](C)(C)CCOC(N)=O [Carbachol chloride] | -0.56 |  |
| CC(C)(C)NC[C@H](O)COc1cccc2c1CCCC2=O [(-) Levobunolol hydrochloride] | -0.44 |  |
| Nc1ncn(C2OC(CO)C(O)C2O)c(=O)n1 (stereo not drawn) [Azacytidine-5] | -0.13 |  |
| NS(=O)(=O)c1cc(C(=O)NN2C[C@@H]3[C@H]4CC[C@H](C4)[C@@H]3C2)ccc1Cl [Tripamide] | 0.39 |  |
| CCOC(=O)C1=C(C)NC(C)=C(C(=O)OC)C1c1cccc(Cl)c1Cl (stereo not drawn) [Felodipine] | -0.08 |  |
| C[C@H](CCC(=O)O)[C@H]1CC[C@H]2[C@@H]3C(=O)C[C@@H]4CC(=O)CC[C@]4(C)[C@H]3CC(=O)[C@]12C [Dehydrocholic acid] | 0.67 |  |
| O=C1c2c(O)ccc(O)c2C(=O)c2c(NCCNCCO)ccc(NCCNCCO)c21 [Mitoxantrone dihydrochloride] | 0.34 |  |
| CCN(CC)CCNC(=O)c1cc(Br)c(N)cc1OC [Bromopride] | -0.7 |  |
| CCCCC(=O)N(Cc1ccc(-c2ccccc2-c2nnn[nH]2)cc1)[C@H](C(=O)O)C(C)C [Valsartan] | -0.76 |  |
| OC(CCN1CCCCC1)(c1ccccc1)c1ccccc1 [Pridinol methanesulfonate salt] | 0.22 |  |
| O=C1c2cccc(O)c2C(=O)c2c(O)cccc21 [Danthron] | -0.15 |  |
| CCOC(=O)C1=C(C)NC(C)=C(C(=O)OC)C1c1cccc([N+](=O)[O-])c1 (stereo not drawn) [Nitrendipine] | 0.26 |  |
| CCn1cc(C(=O)O)c(=O)c2cc(F)c(N3CCNCC3)cc21 [Norfloxacin] | -1.79 |  |
| O=C(c1ccc(OCCN2CCCCC2)cc1)c1c(-c2ccc(O)cc2)sc2cc(O)ccc12 [Raloxifene hydrochloride] | -2.29 |  |
| CC(CN1c2ccccc2Sc2ccccc21)N(C)C (stereo not drawn) [Promethazine hydrochloride] | 0 |  |
| NS(=O)(=O)c1cc2c(cc1C(F)(F)F)NC(Cc1ccccc1)NS2(=O)=O (stereo not drawn) [Bendroflumethiazide] | 0.2 |  |
| COc1cc(N)c(Cl)cc1C(=O)NC1CCN(Cc2ccccc2)CC1 [Clebopride maleate] | 0.1 |  |
| CCc1oc2ccccc2c1C(=O)c1ccc(O)cc1 [Benzarone] | 0.62 |  |

Seven successive records out of the list so far, for reference:

| Compound | eye size Z-score | eye size Z-score (female) |
| --- | --- | --- |
| CC(=O)Oc1ccc(C(c2ccc(OC(C)=O)cc2)c2ccccn2)cc1 [Bisacodyl] | -0.84 |  |
| O=C(O)CCC(=O)c1ccc(-c2ccccc2)cc1 [Fenbufen] | 0.42 |  |
| CN1CCN2c3ccccc3Cc3ccccc3C2C1 (stereo not drawn) [Mianserine hydrochloride] | -0.32 |  |
| N[C@@H](Cc1ccc(O)c(O)c1)C(=O)O [Levodopa] | 1.21 |  |
| CCCCc1ncc(/C=C(\Cc2cccs2)C(=O)O)n1Cc1ccc(C(=O)O)cc1 [Eprosartan mesylate] | 1.44 |  |
| O=C(NC(Cc1cc(=O)[nH]c2ccccc12)C(=O)O)c1ccc(Cl)cc1 (stereo not drawn) [Rebamipide] | 0.09 |  |
| C[N+](C)(C)CCOC(N)=O [Carbachol chloride] | -0.56 |  |
